Results deposited as PubChem BioAssay AID1259317 (Drosophila RNAi Screening Center, 2017)
Assay: 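Membrane and organelle genes affecting manganese toxicity, judged by cellular ATP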 (primary screen). Cell system: Drosophila S2R+ cells. Knock-down reagent: long dsRNA against Drosophila genes. Duration: 5 days (4 days knockdown, then 1 day metal). Treatment: manganese chloride added to 15 mM final for 1 day. Detection: 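Cellular ATP measured by luciferase luminescence after 4 days knockdown then 1 day of 15 mM manganese chloride; z-score averaged over three plates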. Scale: mean z-score, 3 replicates: higher = more ATP, more surviving cells under manganese. Active means: 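a knockdown is active when its averaged z-score lies above 1.5 or below -1.5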. Meaning of the calls: active = hit: z-score beyond ±1.5 (ATP up or down); inactive = not a hit.
Here is an unselected part of 418 reagents tested. 34 of them (8.1%) count as active. 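Hits are two-sided: raised or lowered ATP both count; higher z-score means more ATP and more surviving cells.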 Not given: the amount of reagent.

predicted target	dsRNA	mean z-score, 3 replicates	Outcome
Pex10 (GeneID 38182)	DRSC22021	-0.549	inactive
Pex10 (GeneID 38182)	DRSC38320	0.522	inactive
mnd (GeneID 39625)	DRSC11370	0.138	inactive
mnd (GeneID 39625)	DRSC39608	-0.513	inactive
ACOX1 (GeneID 37028)	DRSC05941	-0.226	inactive
ACOX1 (GeneID 37028)	DRSC24604	0.579	inactive
Pex13 (GeneID 36462)	DRSC06877	0.113	inactive
Pex13 (GeneID 36462)	DRSC40208	-0.0472	inactive
Pex13 (GeneID 36462)	DRSC40344	-0.0717	inactive
Daao2 (GeneID 33955)	DRSC02135	0.961	inactive
CG3376 (GeneID 37884)	DRSC04362	-0.503	inactive
CG3376 (GeneID 37884)	DRSC26489	-0.092	inactive
Hexo2 (GeneID 31808)	DRSC18671	-0.0228	inactive
Vha16-1 (GeneID 44307)	DRSC05020	-0.146	inactive
Vha16-1 (GeneID 44307)	DRSC32228	1.47	inactive
Vha16-1 (GeneID 44307)	DRSC32229	-0.423	inactive
Vps33B (GeneID 43077)	DRSC15722	0.19	inactive
Vps33B (GeneID 43077)	DRSC35357	0.404	inactive
CG14767 (GeneID 50250)	DRSC06500	0.465	inactive
CG14767 (GeneID 50250)	DRSC28418	-0.729	inactive
wat (GeneID 43420)	DRSC14854	0.944	inactive
wat (GeneID 43420)	DRSC34735	-0.595	inactive
Vha36-3 (GeneID 31235)	DRSC18615	2.5	active
Vha36-3 (GeneID 31235)	DRSC28636	1.92	active
Acox3 (GeneID 33898)	DRSC03251	-0.0568	inactive
Acox3 (GeneID 33898)	DRSC23799	0.77	inactive
CG7997 (GeneID 36829)	DRSC07052	-0.642	inactive
CG7997 (GeneID 36829)	DRSC25706	-0.721	inactive
Npc1b (GeneID 33072)	DRSC20488	-0.281	inactive
Npc1b (GeneID 33072)	DRSC36136	-0.88	inactive
Npc1b (GeneID 33072)	DRSC39575	-0.275	inactive
Vps4 (GeneID 32777)	DRSC19338	-2.04	active
Vps4 (GeneID 32777)	DRSC25068	-1.18	inactive
Vps4 (GeneID 32777)	DRSC31082	-0.379	inactive
Ppt1 (GeneID 31805)	DRSC17806	-0.731	inactive
Ctns (GeneID 42723)	DRSC15175	2.06	active
Ctns (GeneID 42723)	DRSC33258	2.7	active
Ctns (GeneID 42723)	DRSC39640	0.722	inactive
CG1607 (GeneID 43707)	DRSC15130	0.357	inactive
CG1607 (GeneID 43707)	DRSC27010	0.159	inactive
Ctr1A (GeneID 31601)	DRSC18336	-1.95	active
Ctr1A (GeneID 31601)	DRSC40310	-1.42	inactive
Ctr1A (GeneID 31601)	DRSC40902	-1.15	inactive
Npc1a (GeneID 34358)	DRSC03378	-0.667	inactive
Npc1a (GeneID 34358)	DRSC33330	-0.827	inactive
Npc1a (GeneID 34358)	DRSC39428	-0.435	inactive
Vps13 (GeneID 35693)	DRSC06817	0.00435	inactive
Vps13 (GeneID 35693)	DRSC29275	-0.325	inactive
Vps13 (GeneID 35693)	DRSC35042	-0.908	inactive
cm (GeneID 31647)	DRSC41297	0.866	inactive
Npc2g (GeneID 43648)	DRSC14296	-1.93	active
VhaM9.7-a (GeneID 38521)	DRSC08289	-0.923	inactive
VhaM9.7-a (GeneID 38521)	DRSC28340	0.552	inactive
Bace (GeneID 34182)	DRSC02197	0.548	inactive
Bace (GeneID 34182)	DRSC28723	-0.482	inactive
Bace (GeneID 34182)	DRSC33860	-0.892	inactive
CG8646 (GeneID 36394)	DRSC07230	1.46	inactive
PMP34 (GeneID 38532)	DRSC21939	-0.0424	inactive
PMP34 (GeneID 38532)	DRSC39444	0.355	inactive
CROT (GeneID 43332)	DRSC27733	0.409	inactive
CROT (GeneID 43332)	DRSC32670	-0.232	inactive
CROT (GeneID 43332)	DRSC32671	-0.995	inactive
Abcd3 (GeneID 32992)	DRSC29341	-0.13	inactive
Abcd3 (GeneID 32992)	DRSC41060	0.00831	inactive
Abcd3 (GeneID 32992)	DRSC41168	0.502	inactive
betaGlu (GeneID 43746)	DRSC24889	-0.363	inactive
betaGlu (GeneID 43746)	DRSC39080	0.194	inactive
betaGlu (GeneID 43746)	DRSC41080	0.725	inactive
Coprox (GeneID 44701)	DRSC01996	-0.635	inactive
Coprox (GeneID 44701)	DRSC28744	0.0529	inactive
Had2 (GeneID 36624)	DRSC05971	0.388	inactive
Had2 (GeneID 36624)	DRSC26955	2.69	active
Pex16 (GeneID 40293)	DRSC11750	0.0623	inactive
Vha26 (GeneID 40679)	DRSC25503	1.1	inactive
Vha26 (GeneID 40679)	DRSC31688	-0.98	inactive
Vha26 (GeneID 40679)	DRSC38973	0.516	inactive

Reformatted: entries from further up.
betaGlu (GeneID 43746) [DRSC41080]
- mean z-score, 3 replicates: 0.725
- Outcome: inactive

Coprox (GeneID 44701) [DRSC01996]
- mean z-score, 3 replicates: -0.635
- Outcome: inactive

Coprox (GeneID 44701) [DRSC28744]
- mean z-score, 3 replicates: 0.0529
- Outcome: inactive

Had2 (GeneID 36624) [DRSC05971]
- mean z-score, 3 replicates: 0.388
- Outcome: inactive
